The full ranking holds about 33,000 sequences; the median of “E-score (-0.5 to 0.5)” is about -0.0014, and the highest 2% start at about 0.25. The list shows a part of the results.
Target: T1, Cad1 (UniProt P24813)
T1 sequence: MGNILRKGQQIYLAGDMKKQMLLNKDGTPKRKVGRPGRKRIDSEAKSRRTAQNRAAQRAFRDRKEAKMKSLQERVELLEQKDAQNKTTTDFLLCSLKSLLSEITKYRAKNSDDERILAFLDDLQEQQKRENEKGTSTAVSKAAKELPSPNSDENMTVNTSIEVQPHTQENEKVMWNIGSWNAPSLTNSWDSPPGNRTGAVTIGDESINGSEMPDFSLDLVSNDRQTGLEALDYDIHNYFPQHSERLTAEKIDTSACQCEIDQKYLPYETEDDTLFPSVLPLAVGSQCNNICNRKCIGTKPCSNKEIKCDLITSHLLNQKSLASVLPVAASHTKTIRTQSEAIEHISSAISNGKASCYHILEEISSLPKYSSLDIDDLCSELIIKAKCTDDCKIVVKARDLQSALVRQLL
Test: PBM E-score (8-mer binding enrichment) (E-score (-0.5 to 0.5)); higher = stronger / more preferred TF binding
Details: protein concentration: 100 nM; construct: GST-full length
Description: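 Universal 'all 10-mer' protein binding microarrays (Agilent AMADID 015681) probed with GST-tagged S. cerevisiae TFs (full-length or DBD) made by in vitro transcription/translation (PURExpress), about 100-200 nM. Bound TF was detected with fluorescent anti-GST. Each ungapped 8-mer (which stands for itself and its reverse complement) is scored by the PBM enrichment score (E-score), a modified Wilcoxon-Mann-Whitney statistic from -0.5 to +0.5, computed with the Universal PBM Analysis Suite. Scale: above 0.35 generally sequence-specific binding.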

Row | Sequence | PBM E-score
1 | TCAGCAAA | 0.215
2 | ATTTCCTA | 0.12
3 | ACGGGCGG | -0.186
4 | AAAAGTAC | 0.0242
5 | GGTTAGTA | 0.219
6 | ATATACAG | 0.163
7 | ATGTTACA | 0.163
8 | CCAGATTA | 0.0456
9 | ACTAGTTC | 0.0748
10 | ACCCCTTG | -0.202
11 | CAGCTTGC | 0.021
12 | GCGAACGC | -0.136
13 | TAAGTTCA | 0.0639
14 | CACTGTTC | -0.0722
15 | CTAGCAGC | -0.00538
16 | ATCTGCAG | 0.101
17 | GCAGCTAA | 0.0749
18 | GAAATTAC | 0.234
19 | CGCAGTAA | 0.0873
20 | GCATCGTA | -0.0986
21 | AGTTCGGG | 0.041
22 | GCAGTCTA | 0.0496
23 | GACCACTC | -0.0521
24 | AGCTCGCA | 0.0143
25 | TACGATAA | 0.149

Single entries from the results shown:
In PBM E-score, ATGTTACA is entered as 0.163
In PBM E-score, GGTTAGTA is entered as 0.219
In PBM E-score, TACGATAA is entered as 0.149
In PBM E-score, ACGGGCGG is entered as -0.186
In PBM E-score, AGTTCGGG is entered as 0.041
In PBM E-score, CCAGATTA is entered as 0.0456
In PBM E-score, GCAGTCTA is entered as 0.0496

(further entries)

Row | Sequence | PBM E-score
26 | CAAATTTC | 0.201
27 | AACTCGCT | 0.156
28 | ACATACCG | -0.0837
29 | AGCATCAT | 0.135
30 | GCCTGATA | -0.0711
31 | AAAGGAAG | -0.0972
32 | CTCGCGAA | 0.0936
33 | CTAGGCAC | -0.0229
34 | GTACCTCA | -0.0932
35 | GACACGCC | -0.103
36 | CTCAGTCA | -0.0763
37 | AGCTGGTA | -0.151
38 | GGAAATTA | 0.208
39 | CTGACTGC | -0.0899
40 | GTGGAGGA | -0.159
41 | ACTAAGGA | 0.14
42 | TACTCAGA | 0.105
43 | ATTAGAGC | 0.041
44 | ACATCGAT | 0.189
45 | CCGTCAAA | -0.0889
46 | GATTTGAA | 0.16
47 | TCGCCCGA | -0.051
48 | CGGATAGC | 0.0973
49 | GAGCCAGA | -0.0362
50 | ACAGTCTG | -0.0665

Row | Sequence | PBM E-score
51 | GAGAGCCC | -0.458
52 | CACTAGCA | -0.122
53 | AGATACGA | 0.0914
54 | ATGGGCTG | -0.0873
55 | GTAACGAC | -0.0326
56 | CATTCTTC | 0.0436
57 | TACCAAAA | 0.0279
58 | CAGCCCAA | -0.114
59 | GGCCACGA | 0.0126
60 | CCCACTGC | -0.0251
61 | AGTGGCGG | -0.014
62 | CGAACCGA | 0.262
63 | TAGCTCCA | -0.0928
64 | TCGTGCCA | -0.0291
65 | TCGGCCAA | 0.0664
66 | CGAATGGC | 0.0635
67 | CAGGGACG | -0.0337
68 | CCACTTTC | 0.0286
69 | ACAGGCCC | -0.35
70 | AACTAAAT | -0.00484
71 | AATCACCA | 0.17
72 | CCTCTTCA | -0.107
73 | ATAAGTAA | 0.192
74 | GTGAGCCA | -0.0702
75 | ATAAATAA | 0.239

Row | Sequence | PBM E-score
76 | CAATGGAA | 0.117
77 | AACTTGCA | -0.0362
78 | GCCCCTGA | -0.0911
79 | ACGGTTTG | 0.0498
80 | CGGGATCC | 0.176
81 | CCGTGAAA | 0.175
82 | CTTTACTA | 0.213
83 | ACATCATA | 0.105
84 | CCATCCCC | -0.137
85 | CACATGCG | 0.0999
86 | AATTAGCC | 0.13
87 | AGATTATG | 0.101
88 | AGCGTGGG | -0.113
89 | CCGGTCCC | -0.204
90 | ATTACGAG | 0.0536
91 | CTCTTAGA | 0.0333
92 | TCGTCACA | 0.112
93 | AGAAAAAC | -0.0294
94 | ATCTCTGG | 0.0345
95 | CGCTGGTC | -0.211
96 | AGGTGTAA | -0.0466
97 | ATCGCGAT | 0.237
98 | TGGTGACA | 0.0209
99 | CCAGACAG | -0.0905
100 | GAGGCGGA | -0.168

Row | Sequence | PBM E-score
101 | CCAACAGC | -0.0482
102 | ATCTGGCG | 0.107
103 | ACTCGTAA | 0.292
104 | CCTGTTAG | -0.008
105 | CATATATC | 0.141
106 | AAGTACCC | -0.201
107 | AAGGTACT | 0.0522
108 | ACTATCAC | -0.0123
109 | GGGGCCGA | -0.256
110 | TAGATCCA | -0.0177
111 | CTGTGGCA | -0.0544
112 | CATAGTAA | 0.141
113 | CCTTTGAA | -0.16
114 | ACGGGGGC | -0.42
115 | CGTGATTC | -0.021
116 | TCGCCACA | 0.0186
117 | CGCCACAA | 0.0423
118 | ACTCCCCT | -0.29
119 | CAAAGTGC | -0.167
120 | GATCCTAC | 0.00192
121 | CCAACGGC | -0.123
122 | CGGCGGTA | 0.107
123 | GGGAAGGA | -0.153
124 | GTTATAGA | 0.0936
125 | AAAAAATG | 0.216

Row | Sequence | PBM E-score
126 | ATGGAGCG | 0.0392
127 | ATCTAACA | 0.0581
128 | GGAGTCCC | -0.181
129 | CCTATACG | -0.244
130 | TAGTTCAA | 0.0165
131 | AGTGGTCG | -0.0799
132 | TAGTGAGA | -0.0853
133 | AACTCACG | 0.108
134 | CGTGAATA | 0.144
135 | GACCTTAC | -0.0272
136 | ATTGGCGG | 0.00921
137 | ACCCCAAG | -0.189
138 | ATCGGACA | 0.00529
139 | CGGAAGCA | 0.201
140 | CCCGGTGC | -0.223
141 | CCCTATAC | -0.0183
142 | AACGTCCA | 0.0376
143 | AAGATCTA | -0.171
144 | CGGATTAG | 0.126
145 | TCCGCAAA | 0.106
146 | GCGGCTGA | -0.0597
147 | GCTGGACA | -0.103
148 | AAAAAACC | 0.0141
149 | AGAGCCAA | -0.156
150 | TGGGACCA | -0.0597

Row | Sequence | PBM E-score
151 | AAGTGCCG | 0.0714
152 | CTAAGACC | -0.0662
153 | CTCCATAA | -0.17
154 | AAAACCGG | 0.131
155 | AGTGCCAC | -0.156
156 | AAGCTGGG | -0.2
157 | AGATGTCC | -0.0414
158 | CAGGAAGC | -0.0352
159 | GCGTGCAA | 0.001
160 | ACTAAATG | 0.0542
161 | GAGTAAAA | 0.0611
162 | ACCAAGAC | 0.144
163 | ATCCGAAA | 0.0252
164 | GGCAGGAA | -0.0227
165 | GTACGGTA | 0.0291
166 | CATATGAG | 0.19
167 | TAGCCTAA | -0.0715
168 | GTAGGGAC | -0.158
169 | ACTGGTGC | -0.156
170 | GAGGCGGC | -0.051
171 | GCCTCCTA | -0.116
172 | TCAATTCA | -0.0699
